Measurements reported in PubChem BioAssay AID1259405 (NCATS, 2018)

Aim: 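Mouse-designed siRNAs used to find CHO productivity engineering targets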 (primary screen)
Cells: Chinese hamster CHO-K1 ovary cells with stable secreted eGFP expression
Reagents: single siRNA against mouse genes, 0.8 pmol siRNA per well (2 µl of 400 nM stock)
Time to read-out: 3 days
Measured: 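Percent of the per-plate non-targeting control median for intracellular GFP per well by laser scanning cytometry and for cell viability by ATP luminescence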
Direction: GFP, % of control: higher = more GFP per well, higher productivity; viability (ATP), % of control: higher = more viable cells (more ATP)
Hit rule: 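a knock-down is called active if GFP reaches 120% or more of non-targeting control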
The deposit covers about 50,000 reagents; this is a part drawn at random. About 4,000 of them (8%) were called active. 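Mouse siRNA library applied to hamster cells; one well for each siRNA.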 Entries without a mark were called inactive. The numbers tell different reagents against one gene apart.

The first 4 entries, to show the layout:
gene | reagent | GFP, % of control | viability (ATP), % of control
Akap19 (GeneID 67080) | 1 | 84.1 | 92
Akap19 (GeneID 67080) | 2 | 92.3 | 88.5
Akap19 (GeneID 67080) | 3 | 106 | 72.1
Sharpin (GeneID 106025) | 1 | 91.9 | 99.2

Main list, from the first entry:
gene | reagent | GFP, % of control | viability (ATP), % of control
Akap19 (GeneID 67080) | 1 | 84.1 | 92
Akap19 (GeneID 67080) | 2 | 92.3 | 88.5
Akap19 (GeneID 67080) | 3 | 106 | 72.1
Sharpin (GeneID 106025) | 1 | 91.9 | 99.2
Sharpin (GeneID 106025) | 2 | 89.9 | 89.8
Ndufa2 (GeneID 17991) | 1 | 133 (active) | 135
Ndufa2 (GeneID 17991) | 2 | 143 (active) | 99
Pole (GeneID 18973) | 1 | 75.9 | 87.8
Pole (GeneID 18973) | 2 | 96 | 68.6
Pole (GeneID 18973) | 3 | 89 | 68.3
Naa38 (GeneID 78304) | 1 | 70 | 70.9
Naa38 (GeneID 78304) | 2 | 96.8 | 85.5
Naa38 (GeneID 78304) | 3 | 54.5 | 38.1
Nfkbiz (GeneID 80859) | 1 | 106 | 69.3
Nfkbiz (GeneID 80859) | 2 | 44.3 | 21.9
Nfkbiz (GeneID 80859) | 3 | 98.4 | 112
Or8b1b (GeneID 258797) | 1 | 74.9 | 61.7
Or8b1b (GeneID 258797) | 2 | 62.6 | 66.8
Or8b1b (GeneID 258797) | 3 | 82.3 | 21.3
Fate1 (GeneID 77905) | 1 | 67.5 | 71.1
Fate1 (GeneID 77905) | 2 | 79.9 | 67.1
Fate1 (GeneID 77905) | 3 | 76.3 | 106
Hlf (GeneID 217082) | 1 | 62.1 | 52.6
Hlf (GeneID 217082) | 2 | 51.8 | 98.3
Hlf (GeneID 217082) | 3 | 109 | 81.7
Uqcc1 (GeneID 56046) | 1 | 85.6 | 91.9
Uqcc1 (GeneID 56046) | 2 | 59.1 | 72.2
Uqcc1 (GeneID 56046) | 3 | 75.8 | 99.2
Sned1 (GeneID 208777) | 1 | 67.1 | 38.8
Sned1 (GeneID 208777) | 2 | 67.1 | 48
Sned1 (GeneID 208777) | 3 | 71.2 | 66.6
Cnrip1 (GeneID 380686) | 1 | 32.7 | 55.8
Cnrip1 (GeneID 380686) | 2 | 77.3 | 79.6
Cnrip1 (GeneID 380686) | 3 | 101 | 46.2
Sertm1 (GeneID 329641) | 1 | 71.8 | 51.9
Sertm1 (GeneID 329641) | 2 | 109 | 106
Sertm1 (GeneID 329641) | 3 | 102 | 102
Ptprz1 (GeneID 19283) | 1 | 98.8 | 92.6
Ptprz1 (GeneID 19283) | 2 | 73.2 | 78
Sostdc1 (GeneID 66042) | 1 | 40.1 | 72.9
Sostdc1 (GeneID 66042) | 2 | 160 (active) | 82.9
Sostdc1 (GeneID 66042) | 3 | 86.1 | 79.4
Fdps (GeneID 110196) | 1 | 76.3 | 55.7
Fdps (GeneID 110196) | 2 | 81 | 65.7
Nelfcd (GeneID 57314) | 1 | 86.8 | 91
Nelfcd (GeneID 57314) | 2 | 97.6 | 100
Nelfcd (GeneID 57314) | 3 | 128 (active) | 146
Pabpc5 (GeneID 93728) | 1 | 101 | 117
Pabpc5 (GeneID 93728) | 2 | 86 | 74.7
Tmprss11b (GeneID 319875) | 1 | 77 | 81
Tmprss11b (GeneID 319875) | 2 | 81.5 | 74.4
Tmprss11b (GeneID 319875) | 3 | 71.7 | 84.5
Map4k2 (GeneID 26412) | 1 | 90.8 | 90.4
Dnaja4 (GeneID 58233) | 1 | 81.3 | 73.5
Dnaja4 (GeneID 58233) | 2 | 98.8 | 95.3
Dnaja4 (GeneID 58233) | 3 | 66.4 | 105
Pacs2 (GeneID 217893) | 1 | 57.7 | 70.5
Pacs2 (GeneID 217893) | 2 | 78.6 | 83.4
Pacs2 (GeneID 217893) | 3 | 135 (active) | 123
Marchf1 (GeneID 72925) | 1 | 47.9 | 49.1
Marchf1 (GeneID 72925) | 2 | 105 | 80.1
Marchf1 (GeneID 72925) | 3 | 70.7 | 111
Asns (GeneID 27053) | 1 | 53.5 | 61.9
Asns (GeneID 27053) | 2 | 65 | 58.5
Asns (GeneID 27053) | 3 | 69.6 | 67.8
1700067P10Rik (GeneID 68224) | 1 | 81.1 | 89.1
1700067P10Rik (GeneID 68224) | 2 | 72.6 | 95
1700067P10Rik (GeneID 68224) | 3 | 50.3 | 43.1
Or52e15 (GeneID 258755) | 1 | 88 | 68.4
Or52e15 (GeneID 258755) | 2 | 54.4 | 48.3
Or52e15 (GeneID 258755) | 3 | 108 | 118
Mmp21 (GeneID 214766) | 1 | 67.7 | 92.4
Mmp21 (GeneID 214766) | 2 | 41.9 | 58.7
Zfp672 (GeneID 319475) | 1 | 96.9 | 90.9
Zfp672 (GeneID 319475) | 2 | 16.7 | 29.1
Zfp672 (GeneID 319475) | 3 | 85.8 | 104
Or51a5 (GeneID 259115) | 1 | 131 (active) | 123
Or51a5 (GeneID 259115) | 2 | 84.2 | 87.8
Or51a5 (GeneID 259115) | 3 | 79.9 | 57.3
Rnf214 (GeneID 235315) | 1 | 41.6 | 58
Rnf214 (GeneID 235315) | 2 | 68.1 | 39.6
Rnf214 (GeneID 235315) | 3 | 96 | 102
Eme1 (GeneID 268465) | 1 | 45.3 | 45.2
Eme1 (GeneID 268465) | 2 | 88.7 | 87.5
Eme1 (GeneID 268465) | 3 | 107 | 116
